At least one compound was matched to its structure with a doubt left. Bridge positions count the residues as written; N and C are the ends. Square brackets hold non-standard residues; d marks the D form. Peptide text beside a SMILES is read from it. * marks the point of attachment. DOTA = O=C(O)CN1CCN(CC(=O)O)CCN(CC(=O)*)CCN(CC(=O)O)CC1; αMeW = C[C@](N)(Cc1c[nH]c2ccccc12)C(=O)O
Molecular target: T1, human DLL3 (Homo sapiens, UniProt Q9NYJ7)
T1 sequence (Q9NYJ7 27-618): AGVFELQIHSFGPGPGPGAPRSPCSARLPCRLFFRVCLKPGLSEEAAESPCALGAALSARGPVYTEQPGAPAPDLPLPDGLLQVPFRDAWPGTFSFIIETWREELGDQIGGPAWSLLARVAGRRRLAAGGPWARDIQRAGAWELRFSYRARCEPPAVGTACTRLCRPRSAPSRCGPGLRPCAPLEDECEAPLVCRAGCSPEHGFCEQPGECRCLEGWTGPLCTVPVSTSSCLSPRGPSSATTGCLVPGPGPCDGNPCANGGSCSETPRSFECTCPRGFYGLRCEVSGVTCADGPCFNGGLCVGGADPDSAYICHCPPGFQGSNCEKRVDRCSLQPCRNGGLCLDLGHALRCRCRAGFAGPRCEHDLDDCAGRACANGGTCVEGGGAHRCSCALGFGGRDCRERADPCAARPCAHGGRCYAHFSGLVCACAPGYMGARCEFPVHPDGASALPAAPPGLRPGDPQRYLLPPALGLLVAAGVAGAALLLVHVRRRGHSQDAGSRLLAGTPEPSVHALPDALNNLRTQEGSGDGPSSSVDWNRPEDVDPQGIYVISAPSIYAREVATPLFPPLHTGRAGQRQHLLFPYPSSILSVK
Assay: Affinity determination by Surface Plasmon Resonance (SPR)
Details: 25° C., biotinylated human DLL3 immobilized on streptavidin sensor chip, 1:1 binding model
Procedure: SPR studies were performed on the compounds disclosed herein using the following protocol.
Biotinylated target ligand human DLL3 was immobilized on a streptavidin sensor chip. A reference surface was set up for nonspecific binding and refractive index changes. For analysis of the kinetics of interactions, varying concentrations of samples were injected at a flow rate of 100 μL/minute using running buffer containing 20 mM phosphate buffer with 2.7 mM KCl, 137 mM NaCl, 0.05% Surfactant P20 and 2% DMSO. Sensorgram curves were fitted with 1:1 binding model, and affinity and kinetic parameters were obtained using Biacore Insight evaluation 4.0. software.

## CC[C@H](C)[C@H](NC(=O)[C@@H](NC(=O)[C@H](Cc1c[nH]c2ccccc12)NC(C)=O)[C@@H](C)O)C(=O)N[C@H]1CSSC[C@@H](C(=O)N[C@@H](Cc2c[nH]c3ccccc23)C(=O)N2CCC[C@H]2C(=O)N[C@H](CCCCNC(=O)CN2CCN(CC(=O)O)CCN(CC(=O)O)CCN(CC(=O)O)CC2)C(N)=O)NC(=O)[C@H](CC(=O)O)NC(=O)[C@H](Cc2c[nH]cn2)NC(=O)[C@](C)(Cc2c[nH]c3ccccc23)NC(=O)[C@H](CC(N)=O)NC(=O)[C@H](CC(N)=O)NC1=O [compound 118, Ac-W-T-I-C(3)-N-N-(aMe-W)-H-D-C(3)-W-P-[D-Lys(DOTA)]-NH2] (Ac-WTICNN[αMeW]HDCWP[dK](DOTA)-NH2; disulfide 4-10)
  Kd: 10 to 100 nM

Reference: US20250011368A1, “DLL3 TARGETING PEPTIDES AND CONSTRUCTS THEREOF” (MARIANA ONCOLOGY INC., priority 2023, published 2025)
